Data published in patent US6890537B2 (The Regents of the University of California, priority 1999, dated 2005).

Experiment: general procedure: Fmoc solid-phase peptide synthesis in flow; PEG-PS resin; HATU/DIEA; cysteine as preformed pentafluorophenyl ester
Conditions: cyclisation step, on acyclic oxidized precursor, hydrochloride salt

## Gly-Phe-Cys-Arg-Cys-Leu-Cys-Arg-Arg-Gly-Val-Cys-Arg-Cys-Ile-Cys-Thr-Arg.
  cyclisation yield: 56.6%
